Test: general procedure: Fmoc solid-phase peptide synthesis; Sasrin resin; HOBT, TBTU, DIEA
Settings: whole synthesis, scale 0.69 mmol, trifluoroacetate

In the case of c(Ary(Pmc)-Gly-Asp(OtBu)-D-Phe-Aad), the isolated mass is reported as 187 mg.
